Laboratory results published in the supplement of paper PMC5949888.
Most values lie at the floor of the assay. Slopes are relative: functional sequences can read slightly below zero.

Each substance was assayed on Saccharomyces cerevisiae PS128 hsf1 delta, HSF1(1-493) fusion (assay: growth estimate (transactivation domain function in HSF1 fusion, heat-shock survival) (a.u. (slope of normalised read count over time)); higher = stronger growth at 37°C, i.e. more transactivation activity). Details: library: random library.
Method: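 Random 60-nt DNA library encoding peptides of up to 20 aa, fused to the C-terminus of yeast HSF1 residues 1-493 (C-terminal TAD deleted) and expressed from the native HSF1 promoter on a CEN plasmid in hsf1-deleted S. cerevisiae PS128. Cells were selected at 37°C on -trp 5-FOA plates for 0, 2, 4, 6 and 8 days and amplicons were sequenced. Growth estimate is the slope of a robust linear fit of total-sum-normalised read counts (normalised to the first time point) over time, using at least 2 replicates. Sequences are classed functional (TAD activity) above a threshold of -0.13, set from stop-codon control sequences.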
For GGGSDVTSALEFLDRLYSLW, the growth estimate was under -0.25.
Substance GGHLRAISQVGPD has a growth estimate of under -0.25.
For GGHPEGS, the growth estimate was under -0.25.
GGHRPPSSRRLYYEQCNLHR was tested, and the growth estimate was under -0.25.
GGIPIFAAAKLHRGMRAGRG showed a growth estimate of under -0.25.
Work on GGIRETFVGSARGDIPRRPS yielded a growth estimate of under -0.25.
GGISLFPRGDGHLTRFKIRQ was tested, and the growth estimate was under -0.25.
In the case of GGISTK, the growth estimate is reported as under -0.25.
GGKWIREIDGVINRTRRSGL was tested, and the growth estimate was under -0.25.
Substance GGLACRGVDRG has a growth estimate of under -0.25.
Substance GGLFHGAFGEAKRSITLAPH has a growth estimate of under -0.25.
GGLFWDRSACANPGGNTVRQ was tested, and the growth estimate was under -0.25.
GGLKYGRCVSSSYTVLPGMS gave a growth estimate of under -0.25.
In the case of GGLNCVWYVR, the growth estimate is reported as under -0.25.
In the case of GGLSRDPDPRRYSNAFTIAI, the growth estimate is reported as under -0.25.
For GGLTGTIHRTWLAGRTSHVT, the growth estimate was under -0.25.
For GGLVPGSVSTRFEDSATVNS, the growth estimate was under -0.25.
GGLWFEVEMKADLFGSRSAS showed a growth estimate of under -0.25.
Work on GGMPWQFSL yielded a growth estimate of -0.174.
GGMRTLVPVR showed a growth estimate of under -0.25.
With GGMTWGV the growth estimate was under -0.25.
With GGMVRYTWASM the growth estimate was under -0.25.
In the case of GGNNDAWRLCKGRFWAAVAW, the growth estimate is reported as under -0.25.
Substance GGNTCGAISSRRH has a growth estimate of under -0.25.
Work on GGPSYESNRSPLRALGKSSA yielded a growth estimate of under -0.25.
In the case of GGPTATDLEKRVDMVPLRSN, the growth estimate is reported as under -0.25.
GGPVRFREAEKKYLDPA was tested, and the growth estimate was under -0.25.
GGQFLG showed a growth estimate of under -0.25.
For GGQLCDVKAAMGPVRGNLR, the growth estimate was under -0.25.
Work on GGRAEALCA yielded a growth estimate of under -0.25.
For GGRAGQGTGNAGGSAHCCAA, the growth estimate was under -0.25.
With GGRASLWFRSQGSDTIIRLS the growth estimate was under -0.25.
GGRGSRM gave a growth estimate of under -0.25.
With GGRIHLNAG the growth estimate was under -0.25.
In the case of GGRP, the growth estimate is reported as under -0.25.
GGRPGGRP gave a growth estimate of under -0.25.
Substance GGRPSHAAPPSPGRVTKDPG has a growth estimate of under -0.25.
In the case of GGRRIYGWGRLGSKSTASPH, the growth estimate is reported as under -0.25.
GGRTAKLMNRSEL gave a growth estimate of -0.23.
Substance GGRVNSRGITVQHTPQHRER has a growth estimate of under -0.25.
In the case of GGRVRES, the growth estimate is reported as -0.245.
GGRVTVRLTA showed a growth estimate of under -0.25.
GGSAISGHCKRPSNGGNTSR was tested, and the growth estimate was under -0.25.
For GGSGAQNGST, the growth estimate was under -0.25.
For GGSGLHGHGSRLR, the growth estimate was -0.243.
GGSLGSEPAVSCGAYGARDY gave a growth estimate of under -0.25.
In the case of GGT, the growth estimate is reported as under -0.25.
For GGTF, the growth estimate was under -0.25.
Substance GGTKRIMSYLGRRIPVRYAC has a growth estimate of under -0.25.
Substance GGTKSQIMHEWNCR has a growth estimate of under -0.25.
GGTLNFGAHRTRIRGEVSYE gave a growth estimate of under -0.25.
For GGTRLNA, the growth estimate was under -0.25.
GGTSNH was tested, and the growth estimate was under -0.25.
Work on GGTWLS yielded a growth estimate of under -0.25.
With GGVAG the growth estimate was 0.0119.
Substance GGVRQFPKARNIVSCLKAK has a growth estimate of under -0.25.
Work on GGVRQSERVSSEASIILTTG yielded a growth estimate of under -0.25.
For GGVRRYSLGHLISGALNESR, the growth estimate was under -0.25.
For GGVSALKAEGVCSL, the growth estimate was under -0.25.
With GGVSSGGEICIRRFCFKSLI the growth estimate was under -0.25.
Work on GGVT yielded a growth estimate of under -0.25.
Substance GGVWQKMLIVRLTLLGLGLR has a growth estimate of under -0.25.
Substance GGWNGGVAQGRDSPNAVYRW has a growth estimate of under -0.25.
With GGWWPRLLNNETRAFALRGS the growth estimate was under -0.25.
In the case of GGYGRDLSGASREGLSQSIP, the growth estimate is reported as under -0.25.
With GGYLPRSGQQIKPCEGIIFA the growth estimate was under -0.25.
Substance GGYRIPGSGDDLSLEVTERS has a growth estimate of under -0.25.
With GGYYIHQGEWVQEQS the growth estimate was under -0.25.
With GHADLLKQLS the growth estimate was under -0.25.
Work on GHCVEWFLNPFCIDYLKYAP yielded a growth estimate of under -0.25.
GHFALS showed a growth estimate of under -0.25.
For GHG, the growth estimate was under -0.25.
GHGENPHKMSDPNNAG showed a growth estimate of under -0.25.
For GHGLI, the growth estimate was under -0.25.
In the case of GHGRVWHRFRISVFHSHLPT, the growth estimate is reported as under -0.25.
Work on GHGVLG yielded a growth estimate of -0.218.
Substance GHGYDRTAGESGD has a growth estimate of under -0.25.
With GHI the growth estimate was under -0.25.
GHIISAQGATLCIKA was tested, and the growth estimate was under -0.25.
GHIISSVECSI was tested, and the growth estimate was under -0.25.
Substance GHLGASK has a growth estimate of under -0.25.
Substance GHLGGPLNLSPFRENVGRVR has a growth estimate of under -0.25.
Work on GHMQREDMKNRK yielded a growth estimate of under -0.25.
For GHPGGGGGAQGGTRSIFSVP, the growth estimate was under -0.25.
In the case of GHQIRGRGYCS, the growth estimate is reported as under -0.25.
With GHRCKERGIFLTGR the growth estimate was under -0.25.
GHRGWALGHCPGHG was tested, and the growth estimate was under -0.25.
Work on GHRLIHPDRDH yielded a growth estimate of under -0.25.
GHRWILICDRYLLGWLASPS gave a growth estimate of under -0.253.
GHSISKA showed a growth estimate of under -0.25.
In the case of GHSLKPATTSGGGSLWIQRR, the growth estimate is reported as under -0.25.
In the case of GHSQMKFGCTTGGAPGLIGR, the growth estimate is reported as under -0.25.
For GHW, the growth estimate was under -0.25.
Substance GHYGLDTHARPAPLIGLVVS has a growth estimate of under -0.25.
For GHYSRAYPGSRTPGIYYYIQ, the growth estimate was under -0.25.
For GIAG, the growth estimate was under -0.25.
Substance GIALSQPVQPPRDHATPGGI has a growth estimate of under -0.25.
With GIASLLDRLVGLGSTRADGP the growth estimate was under -0.25.
Work on GIAYACVFITAILSAVL yielded a growth estimate of under -0.25.
For GIDELPPEPRLGQARRAGTA, the growth estimate was under -0.25.
Substance GIDRILMCRG has a growth estimate of under -0.25.
With GIFC the growth estimate was under -0.25.
GIFDRTRICTDALLGDQRLI was tested, and the growth estimate was under -0.25.
In the case of GIFLILERIWALDLP, the growth estimate is reported as under -0.25.
In the case of GIGHIFLYIDKL, the growth estimate is reported as under -0.25.
GIGSLWGCLACAGPTLLLSV gave a growth estimate of under -0.25.
GIGTEQLMEVAGA showed a growth estimate of under -0.25.
GIGYAAWPLYTVTGLAFRKL showed a growth estimate of under -0.25.
In the case of GIHKEGQVYCGGRDRRLVVS, the growth estimate is reported as under -0.25.
GIHKSPLARTLHQPPIMSLS was tested, and the growth estimate was under -0.25.
With GIHQPSGRGIDP the growth estimate was under -0.25.
Substance GIIIC has a growth estimate of under -0.25.
For GIIPT, the growth estimate was under -0.25.
Substance GIIRRVTLSGSVWHCGWESA has a growth estimate of under -0.25.
Substance GIKGWDEGNDLAAPFLKPDC has a growth estimate of under -0.25.
Work on GIKLRAVSLQRVQAW yielded a growth estimate of under -0.25.
Work on GILAWGTPV yielded a growth estimate of under -0.25.
GILLPGLQRSVWVLPVEETR was tested, and the growth estimate was under -0.25.
GILPCIQLTNTHLGERLEWI was tested, and the growth estimate was -0.231.
GILRGLRASVSRTGQLQWYD gave a growth estimate of under -0.25.
For GIMHALTSGGHMISKSE, the growth estimate was under -0.25.
In the case of GIMRLQPIKYAGYIT, the growth estimate is reported as under -0.25.
In the case of GIMVPASSSER, the growth estimate is reported as under -0.25.
In the case of GIPARIPGFRARVAGMRHHV, the growth estimate is reported as under -0.25.
Work on GIPTSLAVFSLFMGTGPPHR yielded a growth estimate of -0.235.
For GIRFAAC, the growth estimate was under -0.25.
In the case of GIRLCYAERGKDLVPSKFR, the growth estimate is reported as under -0.25.
Substance GIRPGVTNPPPAPQEVHYHA has a growth estimate of under -0.25.
Work on GISASRPNYVASKMRITCGC yielded a growth estimate of under -0.25.
With GISFTASPVCGFWL the growth estimate was -0.0277.
With GISPILLW the growth estimate was under -0.25.
GISPISTPGVVSCTRDRSPS showed a growth estimate of under -0.25.
GITPSAVNLEALLVWIDNLS gave a growth estimate of under -0.25.
GIVTIIRRRCLPKSGTTRVG was tested, and the growth estimate was under -0.25.
For GIWPEYSTLVETA, the growth estimate was under -0.25.
Work on GIWPGASEGFGSGD yielded a growth estimate of under -0.25.
GIWPSHGDSLNLRNCSACYW showed a growth estimate of -0.178.
GIYV was tested, and the growth estimate was under -0.25.
In the case of GKAGGW, the growth estimate is reported as under -0.25.
GKCREG gave a growth estimate of under -0.25.
GKDDWWPGP showed a growth estimate of under -0.25.
For GKELRCRGGTFR, the growth estimate was under -0.25.
GKGGGASASPLHFRVKLRAA was tested, and the growth estimate was under -0.25.
With GKGKAPPRGVAPCIGFILSA the growth estimate was under -0.25.
GKH was tested, and the growth estimate was -0.217.
